{"source": "ChEMBL document CHEMBL4689842", "about": "“EUbOPEN Chemogenomics Library wave 1” (2021)", "tested_on": "HEK-293T", "assay": "Multiplex assay against HEK293T", "format": "toxicity, cell-based", "details": "human", "procedure,_shortened": "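Phenotypes for tubulin, mitochondrial mass and membrane permeability are expressed as per cents of healthy-nucleus cells. Cells were stained live at seeding with Hoechst33342, BioTracker Green Microtubule Cytoskeleton Dye, MitoTracker Red and Annexin V Alexa Fluor 680, then imaged after compound addition on a CQ1 microscope at 37°C and 5% CO2. Machine-learning gating in CellPathfinder separated Hoechst high-intensity objects from normal cells, divided normal cells by nuclear state (healthy, pyknosed, fragmented) and divided pyknosed cells into mitotic or apoptotic.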", "data": [{"smiles": "Nc1ccc(C(=O)Nc2cccc(-c3nc(N4CCOCC4)c4oc5ncccc5c4n3)c2)cn1", "values": [{"measurement": "Population Membrane Permeable-Phenotype (%)", "setting": "0 h, 1 µM, compound concentration 1 uM, replicate 1", "value": 4, "unit": "%"}, {"measurement": "Population Membrane Permeable-Phenotype (%)", "setting": "0 h, 1 µM, compound concentration 1 uM, replicate 2", "value": 0, "unit": "%"}, {"measurement": "Population Membrane Permeable-Phenotype (%)", "setting": "0 h, 10 µM, compound concentration 10 uM, replicate 1", "value": 0, "unit": "%"}, {"measurement": "Population Membrane Permeable-Phenotype (%)", "setting": "0 h, 10 µM, compound concentration 10 uM, replicate 2", "value": 1, "unit": "%"}, {"measurement": "Population Membrane Permeable-Phenotype (%)", "setting": "12 h, 1 µM, compound concentration 1 uM, replicate 1", "value": 5, "unit": "%"}, {"measurement": "Population Membrane Permeable-Phenotype (%)", "setting": "12 h, 1 µM, compound concentration 1 uM, replicate 2", "value": 26, "unit": "%"}, {"measurement": "Population Membrane Permeable-Phenotype (%)", "setting": "12 h, 10 µM, compound concentration 10 uM, replicate 1", "value": 17, "unit": "%"}, {"measurement": "Population Membrane Permeable-Phenotype (%)", "setting": "12 h, 10 µM, compound concentration 10 uM, replicate 2", "value": 4, "unit": "%"}, {"measurement": "Population Membrane Permeable-Phenotype (%)", "setting": "24 h, 1 µM, compound concentration 1 uM, replicate 1", "value": 4, "unit": "%"}, {"measurement": "Population Membrane Permeable-Phenotype (%)", "setting": "24 h, 1 µM, compound concentration 1 uM, replicate 2", "value": 15, "unit": "%"}, {"measurement": "Population Membrane Permeable-Phenotype (%)", "setting": "24 h, 10 µM, compound concentration 10 uM, replicate 1", "value": 4, "unit": "%"}, {"measurement": "Population Membrane Permeable-Phenotype (%)", "setting": "24 h, 10 µM, compound concentration 10 uM, replicate 2", "value": 6, "unit": "%"}, {"measurement": "Population Membrane Permeable-Phenotype (%)", "setting": "48 h, 1 µM, compound concentration 1 uM, replicate 1", "value": 4, "unit": "%"}, {"measurement": "Population Membrane Permeable-Phenotype (%)", "setting": "48 h, 1 µM, compound concentration 1 uM, replicate 2", "value": 10, "unit": "%"}, {"measurement": "Population Membrane Permeable-Phenotype (%)", "setting": "48 h, 10 µM, compound concentration 10 uM, replicate 1", "value": 5, "unit": "%"}, {"measurement": "Population Membrane Permeable-Phenotype (%)", "setting": "48 h, 10 µM, compound concentration 10 uM, replicate 2", "value": 11, "unit": "%"}]}]}
